Results on 37 targets are retold here after the supplement of paper PMC11006884.

By UniProt entry, the sequences of proteins in these tests, tags left out. Where a name states a change or a piece, a line headed by the entry shows the natural chain unless it says otherwise.
UniProt P35219: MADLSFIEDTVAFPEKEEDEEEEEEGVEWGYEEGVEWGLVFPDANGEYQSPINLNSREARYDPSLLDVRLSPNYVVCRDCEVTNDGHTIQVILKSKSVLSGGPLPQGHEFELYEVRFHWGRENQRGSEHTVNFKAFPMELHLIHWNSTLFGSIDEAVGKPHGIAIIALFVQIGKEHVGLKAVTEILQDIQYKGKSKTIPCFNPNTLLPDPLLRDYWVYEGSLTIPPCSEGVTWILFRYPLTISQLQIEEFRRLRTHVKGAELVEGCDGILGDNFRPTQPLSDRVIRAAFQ
UniProt P35998: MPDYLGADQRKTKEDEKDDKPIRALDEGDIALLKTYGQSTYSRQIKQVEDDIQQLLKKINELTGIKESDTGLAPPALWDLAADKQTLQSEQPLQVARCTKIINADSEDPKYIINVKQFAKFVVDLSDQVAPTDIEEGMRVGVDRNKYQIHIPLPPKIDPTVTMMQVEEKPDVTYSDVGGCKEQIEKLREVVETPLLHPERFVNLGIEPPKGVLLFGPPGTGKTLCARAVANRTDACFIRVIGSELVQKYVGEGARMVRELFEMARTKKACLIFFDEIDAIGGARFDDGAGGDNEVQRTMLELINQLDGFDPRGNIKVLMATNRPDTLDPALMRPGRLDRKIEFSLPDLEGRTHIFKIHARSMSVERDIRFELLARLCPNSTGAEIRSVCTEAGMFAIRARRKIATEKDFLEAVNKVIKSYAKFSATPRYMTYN
UniProt P31946: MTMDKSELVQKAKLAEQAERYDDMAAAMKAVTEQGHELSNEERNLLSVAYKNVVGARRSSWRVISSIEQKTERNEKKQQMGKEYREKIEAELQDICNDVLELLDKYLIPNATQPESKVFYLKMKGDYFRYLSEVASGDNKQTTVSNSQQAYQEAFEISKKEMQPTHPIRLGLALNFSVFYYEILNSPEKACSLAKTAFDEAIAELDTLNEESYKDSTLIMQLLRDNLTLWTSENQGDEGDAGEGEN
UniProt P33991: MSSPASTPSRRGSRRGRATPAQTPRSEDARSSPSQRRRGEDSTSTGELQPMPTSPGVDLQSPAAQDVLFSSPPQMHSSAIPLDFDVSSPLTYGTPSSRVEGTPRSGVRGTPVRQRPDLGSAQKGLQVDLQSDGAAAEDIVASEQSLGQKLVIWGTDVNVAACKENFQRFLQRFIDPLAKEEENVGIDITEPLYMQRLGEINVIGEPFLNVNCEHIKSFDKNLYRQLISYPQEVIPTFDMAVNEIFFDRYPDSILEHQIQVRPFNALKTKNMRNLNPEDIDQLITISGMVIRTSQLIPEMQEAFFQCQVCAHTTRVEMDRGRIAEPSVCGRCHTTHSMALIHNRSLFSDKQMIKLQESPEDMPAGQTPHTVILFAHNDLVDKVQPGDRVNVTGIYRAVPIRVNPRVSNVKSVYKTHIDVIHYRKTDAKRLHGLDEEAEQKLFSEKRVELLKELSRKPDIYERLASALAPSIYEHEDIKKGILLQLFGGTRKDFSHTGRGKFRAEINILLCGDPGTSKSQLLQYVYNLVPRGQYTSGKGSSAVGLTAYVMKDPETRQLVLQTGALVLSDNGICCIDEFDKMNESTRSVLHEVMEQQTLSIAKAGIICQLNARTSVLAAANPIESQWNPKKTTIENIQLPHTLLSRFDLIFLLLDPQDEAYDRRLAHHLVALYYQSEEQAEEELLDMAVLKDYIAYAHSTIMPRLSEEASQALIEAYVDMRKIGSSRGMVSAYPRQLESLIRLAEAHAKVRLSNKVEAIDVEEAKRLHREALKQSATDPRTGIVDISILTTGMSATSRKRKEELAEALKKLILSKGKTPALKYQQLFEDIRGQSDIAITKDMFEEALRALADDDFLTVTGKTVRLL
UniProt P39748, whole entry, looked up: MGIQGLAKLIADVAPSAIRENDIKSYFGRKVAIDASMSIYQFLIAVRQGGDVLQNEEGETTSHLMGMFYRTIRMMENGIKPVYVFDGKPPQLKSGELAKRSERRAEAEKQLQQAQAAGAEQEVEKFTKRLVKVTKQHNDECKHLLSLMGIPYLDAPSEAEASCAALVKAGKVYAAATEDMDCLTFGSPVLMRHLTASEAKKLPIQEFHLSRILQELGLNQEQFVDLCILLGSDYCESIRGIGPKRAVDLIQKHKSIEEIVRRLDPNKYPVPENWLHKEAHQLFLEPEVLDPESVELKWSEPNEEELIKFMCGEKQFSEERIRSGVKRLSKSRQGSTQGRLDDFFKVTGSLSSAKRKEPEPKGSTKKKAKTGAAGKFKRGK
UniProt P41214: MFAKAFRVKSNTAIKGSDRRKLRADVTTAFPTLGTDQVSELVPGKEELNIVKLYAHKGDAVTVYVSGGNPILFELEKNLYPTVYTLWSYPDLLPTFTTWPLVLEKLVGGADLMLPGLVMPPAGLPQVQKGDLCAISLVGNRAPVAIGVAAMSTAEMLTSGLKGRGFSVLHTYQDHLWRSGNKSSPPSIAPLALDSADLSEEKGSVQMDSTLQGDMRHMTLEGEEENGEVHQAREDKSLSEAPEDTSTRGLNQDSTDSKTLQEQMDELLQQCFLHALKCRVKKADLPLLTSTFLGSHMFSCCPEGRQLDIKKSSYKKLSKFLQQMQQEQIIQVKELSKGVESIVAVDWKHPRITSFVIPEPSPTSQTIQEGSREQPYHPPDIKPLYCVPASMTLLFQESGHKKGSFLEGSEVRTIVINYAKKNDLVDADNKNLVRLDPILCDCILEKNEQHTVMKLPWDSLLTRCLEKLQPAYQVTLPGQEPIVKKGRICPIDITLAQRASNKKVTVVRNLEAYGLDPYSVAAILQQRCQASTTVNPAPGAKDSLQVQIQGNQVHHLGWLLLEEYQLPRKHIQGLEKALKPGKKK
UniProt P31153, whole entry, looked up: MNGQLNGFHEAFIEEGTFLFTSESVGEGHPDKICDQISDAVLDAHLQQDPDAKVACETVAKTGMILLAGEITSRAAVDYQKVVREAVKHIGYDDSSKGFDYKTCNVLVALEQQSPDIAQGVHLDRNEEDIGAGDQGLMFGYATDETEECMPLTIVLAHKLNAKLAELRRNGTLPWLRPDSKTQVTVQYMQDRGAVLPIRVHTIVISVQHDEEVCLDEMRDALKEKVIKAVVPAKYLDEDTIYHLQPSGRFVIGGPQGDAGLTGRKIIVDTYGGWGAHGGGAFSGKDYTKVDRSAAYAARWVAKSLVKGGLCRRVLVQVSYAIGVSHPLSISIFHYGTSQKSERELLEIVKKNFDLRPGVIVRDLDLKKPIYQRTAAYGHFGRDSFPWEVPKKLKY
UniProt P31939: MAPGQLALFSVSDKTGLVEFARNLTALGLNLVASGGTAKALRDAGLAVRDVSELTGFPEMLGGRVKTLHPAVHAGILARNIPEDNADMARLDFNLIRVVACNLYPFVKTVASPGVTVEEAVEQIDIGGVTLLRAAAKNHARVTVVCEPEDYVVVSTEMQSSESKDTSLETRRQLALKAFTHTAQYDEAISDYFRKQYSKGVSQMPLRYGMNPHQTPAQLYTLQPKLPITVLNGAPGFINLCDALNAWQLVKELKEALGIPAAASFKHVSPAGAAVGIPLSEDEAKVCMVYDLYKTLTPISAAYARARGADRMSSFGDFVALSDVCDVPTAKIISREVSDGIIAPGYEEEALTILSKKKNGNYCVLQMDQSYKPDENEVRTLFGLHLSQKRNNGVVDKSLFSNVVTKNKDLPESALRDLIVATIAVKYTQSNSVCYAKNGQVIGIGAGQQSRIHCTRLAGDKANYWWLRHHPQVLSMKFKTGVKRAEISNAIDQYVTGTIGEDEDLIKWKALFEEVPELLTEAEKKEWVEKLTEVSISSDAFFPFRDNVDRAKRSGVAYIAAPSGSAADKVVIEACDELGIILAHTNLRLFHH
UniProt P33176: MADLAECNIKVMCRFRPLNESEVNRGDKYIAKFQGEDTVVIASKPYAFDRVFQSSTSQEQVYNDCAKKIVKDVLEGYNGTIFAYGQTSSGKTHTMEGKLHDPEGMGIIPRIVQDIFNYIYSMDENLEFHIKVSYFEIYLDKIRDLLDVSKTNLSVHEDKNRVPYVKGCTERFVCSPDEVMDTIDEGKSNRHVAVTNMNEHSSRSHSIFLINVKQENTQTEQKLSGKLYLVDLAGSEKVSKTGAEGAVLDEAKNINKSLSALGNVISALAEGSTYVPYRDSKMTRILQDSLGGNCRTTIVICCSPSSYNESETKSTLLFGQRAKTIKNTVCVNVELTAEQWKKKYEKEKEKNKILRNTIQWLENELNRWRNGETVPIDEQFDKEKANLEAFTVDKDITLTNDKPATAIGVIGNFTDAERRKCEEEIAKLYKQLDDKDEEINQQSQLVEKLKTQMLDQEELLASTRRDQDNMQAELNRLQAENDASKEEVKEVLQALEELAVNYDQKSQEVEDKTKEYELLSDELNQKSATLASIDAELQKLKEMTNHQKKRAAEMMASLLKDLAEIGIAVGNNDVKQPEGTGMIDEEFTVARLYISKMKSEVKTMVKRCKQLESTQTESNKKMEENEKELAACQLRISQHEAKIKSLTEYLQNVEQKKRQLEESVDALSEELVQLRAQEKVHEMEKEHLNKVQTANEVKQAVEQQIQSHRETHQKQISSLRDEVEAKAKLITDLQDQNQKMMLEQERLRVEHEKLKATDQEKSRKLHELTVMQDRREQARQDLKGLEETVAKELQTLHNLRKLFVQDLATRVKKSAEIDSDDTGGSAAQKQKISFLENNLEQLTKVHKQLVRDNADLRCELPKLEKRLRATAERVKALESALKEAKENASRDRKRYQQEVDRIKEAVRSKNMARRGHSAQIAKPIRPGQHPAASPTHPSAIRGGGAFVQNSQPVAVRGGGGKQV
UniProt P41250: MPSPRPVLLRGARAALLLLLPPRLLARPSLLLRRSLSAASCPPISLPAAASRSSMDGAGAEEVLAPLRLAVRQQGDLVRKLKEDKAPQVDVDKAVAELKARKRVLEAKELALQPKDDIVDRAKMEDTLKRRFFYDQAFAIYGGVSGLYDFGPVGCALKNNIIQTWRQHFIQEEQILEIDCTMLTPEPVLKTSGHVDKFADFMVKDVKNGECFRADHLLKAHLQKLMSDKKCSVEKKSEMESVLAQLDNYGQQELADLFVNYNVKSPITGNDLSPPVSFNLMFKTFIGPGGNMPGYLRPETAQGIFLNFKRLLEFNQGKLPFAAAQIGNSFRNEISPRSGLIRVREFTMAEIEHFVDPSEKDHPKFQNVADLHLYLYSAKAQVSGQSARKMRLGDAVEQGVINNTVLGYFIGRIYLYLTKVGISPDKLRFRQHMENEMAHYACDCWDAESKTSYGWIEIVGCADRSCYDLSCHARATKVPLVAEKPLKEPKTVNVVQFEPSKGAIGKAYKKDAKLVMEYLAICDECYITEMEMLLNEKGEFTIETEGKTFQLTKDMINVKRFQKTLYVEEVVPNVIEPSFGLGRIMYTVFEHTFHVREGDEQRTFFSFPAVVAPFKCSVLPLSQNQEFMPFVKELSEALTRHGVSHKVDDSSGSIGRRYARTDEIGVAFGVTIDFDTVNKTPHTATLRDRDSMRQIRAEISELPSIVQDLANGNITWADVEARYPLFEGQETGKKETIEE
UniProt P34897: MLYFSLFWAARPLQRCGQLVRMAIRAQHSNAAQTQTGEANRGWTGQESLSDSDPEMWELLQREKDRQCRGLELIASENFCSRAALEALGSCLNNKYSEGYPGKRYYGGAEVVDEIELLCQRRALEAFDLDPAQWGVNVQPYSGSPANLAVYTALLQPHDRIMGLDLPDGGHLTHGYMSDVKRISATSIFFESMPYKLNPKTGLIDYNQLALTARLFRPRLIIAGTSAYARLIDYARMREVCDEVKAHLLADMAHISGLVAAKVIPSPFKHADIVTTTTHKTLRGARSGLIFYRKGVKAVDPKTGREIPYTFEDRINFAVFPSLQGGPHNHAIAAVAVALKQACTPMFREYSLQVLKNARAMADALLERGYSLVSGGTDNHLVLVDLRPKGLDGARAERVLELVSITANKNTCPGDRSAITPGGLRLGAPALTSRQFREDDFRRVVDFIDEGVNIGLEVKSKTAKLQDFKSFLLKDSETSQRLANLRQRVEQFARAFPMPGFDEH
UniProt P30837: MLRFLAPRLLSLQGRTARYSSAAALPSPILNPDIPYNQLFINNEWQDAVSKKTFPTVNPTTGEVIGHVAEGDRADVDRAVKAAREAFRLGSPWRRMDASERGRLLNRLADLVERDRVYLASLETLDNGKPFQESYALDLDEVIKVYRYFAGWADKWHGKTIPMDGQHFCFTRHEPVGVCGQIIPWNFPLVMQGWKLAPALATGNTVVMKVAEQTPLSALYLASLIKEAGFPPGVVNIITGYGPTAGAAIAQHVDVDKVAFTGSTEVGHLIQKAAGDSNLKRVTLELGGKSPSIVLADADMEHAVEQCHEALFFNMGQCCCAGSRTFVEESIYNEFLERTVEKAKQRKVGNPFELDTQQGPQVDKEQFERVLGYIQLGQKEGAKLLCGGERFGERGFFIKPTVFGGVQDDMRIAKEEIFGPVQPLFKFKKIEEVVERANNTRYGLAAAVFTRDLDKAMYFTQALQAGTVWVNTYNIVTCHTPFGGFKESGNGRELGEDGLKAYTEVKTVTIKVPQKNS

The entries are a selection whose mix differs from that of the whole data set.

Compound in this experiment: COC(=O)C#Cc1ccccc1 [methyl 3-phenylpropiolate]
Put plainly: log2 ratio of iodoacetamide-alkyne labeling of the cysteine site, DMSO over compound (competition); higher = stronger covalent engagement of the cysteine by the compound, active = 1 or more. The settings on record: 500 µM; treatment time 1 h; system: HEK293T cell lysate. Summed up: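 Three replicates, each with duplicate channels, were prepared from HEK293T lysate (2 mg/mL) treated with vehicle or electrophile at 500 µM for 1 h at ambient temperature. Iodoacetamide alkyne was then applied for 1 h, and samples were clicked to sCIP-TMT reagents, pooled, trypsin-digested overnight at 37 °C, enriched on streptavidin, acid-eluted and analysed on Orbitrap Eclipse LC-MS/MS with FAIMS, with FragPipe quantification. The log2 competition ratio per cysteine is the mean control-channel divided by the mean compound-channel reporter intensity. Cysteines quantified in only one replicate were left out.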
On to ADD1 C430 (UniProt P35611), for which the “log2 ratio of iodoacetamide-alkyne labeling” value (“log2 ratio” below) was inactive: 0.555.

Turning to STIP1 C26 (UniProt P31948), the “log2 ratio” value is inactive: -0.083.

Consider CA8 C200 (UniProt P35219), for which the “log2 ratio” value was inactive: -0.00308.

As for PSMC2 C270 (UniProt P35998), the “log2 ratio” value is inactive: 0.0616.

Consider ACAA2 C128 (UniProt P42765), for which the “log2 ratio” value was active: 1.22.

On to YWHAB C96 (UniProt P31946), for which the “log2 ratio” value is inactive: -0.0582.

Turning to FDFT1 C374 (UniProt P37268), the “log2 ratio” value was inactive: 0.541.

For MCM4 C212 (UniProt P33991), the “log2 ratio” value is inactive: 0.507.

For the target LRPPRC C208 (UniProt P42704), the “log2 ratio” value was inactive: 0.123.

Turning to FEN1 C141 (UniProt P39748), the “log2 ratio” value is inactive: 0.541.

As for CCT6A C282 (UniProt P40227), the “log2 ratio” value is inactive: 0.13.

Consider HSPA9 C317 (UniProt P38646), for which the “log2 ratio” value is inactive: 0.461.

For CSK C31 (UniProt P41240), the “log2 ratio” value is inactive: -0.0267.

With TMPO C280 (UniProt P42166), the “log2 ratio” value was active: 1.09.

As for IARS C185 (UniProt P41252), the “log2 ratio” value is inactive: 0.162.

Consider HNRNPH1 C290 (UniProt P31943), for which the “log2 ratio” value was inactive: -0.0472.

As for CASP3 C170 (UniProt P42574), the “log2 ratio” value was inactive: 0.259.

For the target PPP2R1A C148 (UniProt P30153), the “log2 ratio” value was inactive: 0.22.

Turning to SDHA C305 (UniProt P31040), the “log2 ratio” value was inactive: 0.021.

RPL9 C74 (UniProt P32969): the “log2 ratio” value was inactive: 0.198.

On to UniProt P41214_C489, for which the “log2 ratio” value is inactive: 0.263.

Regarding MAT2A C56 (UniProt P31153), the “log2 ratio” value is inactive: 0.109.

CCT6A C406 (UniProt P40227): the “log2 ratio” value is inactive: 0.00195.

Turning to NUP214 C728 (UniProt P35658), the “log2 ratio” value is inactive: 0.497.

As to ATIC C241 (UniProt P31939), the “log2 ratio” value is inactive: 0.274.

Regarding ATIC C325 (UniProt P31939), the “log2 ratio” value is inactive: -0.00411.

Regarding SHMT1 C96 (UniProt P34896), the “log2 ratio” value is inactive: 0.0443.

In the case of HSPA9 C66 (UniProt P38646), the “log2 ratio” value was inactive: 0.274.

In the case of KIF5B C174 (UniProt P33176), the “log2 ratio” value was inactive: 0.165.

As to UniProt P41250_C616, the “log2 ratio” value is inactive: -0.119.

For the target PSMC2 C389 (UniProt P35998), the “log2 ratio” value was inactive: 0.151.

With SHMT2 C80 (UniProt P34897), the “log2 ratio” value was inactive: -0.139.

Turning to UQCRC1 C154 (UniProt P31930), the “log2 ratio” value is inactive: 0.369.

With PPP2R1A C154 (UniProt P30153), the “log2 ratio” value is inactive: 0.637.

ALDH1B1 C478 (UniProt P30837): the “log2 ratio” value was inactive: 0.0133.

In the case of SHMT2 C119 (UniProt P34897), the “log2 ratio” value is inactive: -0.0105.

As to PPP2R1B C306 (UniProt P30154), the “log2 ratio” value was inactive: 0.0579.
